{
  "source": "patent US20030186954A1",
  "about": "“Estriol to treat and prevent cardiovascular disease” (priority 2002, published 2003)",
  "assay": "Steroid levels in plasma and urine of estriol cream treated monkeys",
  "settings": "ovariectomized monkeys treated daily with 0.3% estriol topical cream",
  "data": [
    {"smiles": "C[C@]12CC[C@@H]3c4ccc(O)cc4CC[C@H]3[C@@H]1C[C@@H](O)[C@@H]2O", "note": "[Estriol]", "values": [
      {"measurement": "Estradiol (E2) in plasma", "value": "21 ± 2", "unit": "pg/mL"},
      {"measurement": "Progesterone in plasma", "value": "0.7 ± 0.3", "unit": "ng/mL"}
    ]}
  ]
}
